Measurements taken from the supplement of paper PMC10849652.
This is one part of the list.

Sequences of proteins named here, by UniProt entry; tags and fusion partners are left off. A change or cut given only in a name is not applied to a line headed by its entry.
UniProt P53794: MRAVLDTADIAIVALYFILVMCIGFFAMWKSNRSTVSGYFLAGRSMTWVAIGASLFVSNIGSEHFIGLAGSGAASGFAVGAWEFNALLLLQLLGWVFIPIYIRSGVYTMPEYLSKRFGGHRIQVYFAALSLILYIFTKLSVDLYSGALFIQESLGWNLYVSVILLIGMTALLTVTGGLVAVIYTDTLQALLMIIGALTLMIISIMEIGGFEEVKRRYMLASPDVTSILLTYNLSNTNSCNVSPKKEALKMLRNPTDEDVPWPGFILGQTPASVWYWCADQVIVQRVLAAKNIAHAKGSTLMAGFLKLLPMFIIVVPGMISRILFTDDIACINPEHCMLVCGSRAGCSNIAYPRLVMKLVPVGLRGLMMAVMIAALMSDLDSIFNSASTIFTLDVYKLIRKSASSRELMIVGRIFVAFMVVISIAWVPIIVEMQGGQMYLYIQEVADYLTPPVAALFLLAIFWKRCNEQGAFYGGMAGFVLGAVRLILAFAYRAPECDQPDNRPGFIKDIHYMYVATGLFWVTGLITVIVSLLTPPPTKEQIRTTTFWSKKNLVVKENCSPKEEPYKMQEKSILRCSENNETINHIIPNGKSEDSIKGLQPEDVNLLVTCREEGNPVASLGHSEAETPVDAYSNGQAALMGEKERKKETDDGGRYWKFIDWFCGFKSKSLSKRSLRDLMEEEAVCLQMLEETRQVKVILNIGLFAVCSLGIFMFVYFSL
UniProt Q92581: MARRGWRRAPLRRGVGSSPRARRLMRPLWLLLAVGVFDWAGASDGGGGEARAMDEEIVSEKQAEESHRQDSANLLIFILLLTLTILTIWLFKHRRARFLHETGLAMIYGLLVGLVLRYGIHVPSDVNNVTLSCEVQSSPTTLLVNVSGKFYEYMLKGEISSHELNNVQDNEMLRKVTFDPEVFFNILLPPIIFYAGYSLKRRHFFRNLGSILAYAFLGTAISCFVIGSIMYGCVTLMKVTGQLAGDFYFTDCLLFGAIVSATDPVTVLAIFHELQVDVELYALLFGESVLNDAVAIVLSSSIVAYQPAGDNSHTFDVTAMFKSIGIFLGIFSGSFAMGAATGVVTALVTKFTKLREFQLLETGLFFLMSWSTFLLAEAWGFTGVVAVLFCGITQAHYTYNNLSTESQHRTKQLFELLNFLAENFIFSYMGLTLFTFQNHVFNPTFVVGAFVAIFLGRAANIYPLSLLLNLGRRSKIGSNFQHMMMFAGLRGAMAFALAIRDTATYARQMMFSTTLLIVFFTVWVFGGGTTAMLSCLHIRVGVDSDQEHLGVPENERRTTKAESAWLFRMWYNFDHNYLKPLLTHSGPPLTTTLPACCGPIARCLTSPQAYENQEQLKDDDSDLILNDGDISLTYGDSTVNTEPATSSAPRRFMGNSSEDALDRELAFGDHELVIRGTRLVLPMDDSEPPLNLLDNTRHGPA
UniProt Q6NUK1: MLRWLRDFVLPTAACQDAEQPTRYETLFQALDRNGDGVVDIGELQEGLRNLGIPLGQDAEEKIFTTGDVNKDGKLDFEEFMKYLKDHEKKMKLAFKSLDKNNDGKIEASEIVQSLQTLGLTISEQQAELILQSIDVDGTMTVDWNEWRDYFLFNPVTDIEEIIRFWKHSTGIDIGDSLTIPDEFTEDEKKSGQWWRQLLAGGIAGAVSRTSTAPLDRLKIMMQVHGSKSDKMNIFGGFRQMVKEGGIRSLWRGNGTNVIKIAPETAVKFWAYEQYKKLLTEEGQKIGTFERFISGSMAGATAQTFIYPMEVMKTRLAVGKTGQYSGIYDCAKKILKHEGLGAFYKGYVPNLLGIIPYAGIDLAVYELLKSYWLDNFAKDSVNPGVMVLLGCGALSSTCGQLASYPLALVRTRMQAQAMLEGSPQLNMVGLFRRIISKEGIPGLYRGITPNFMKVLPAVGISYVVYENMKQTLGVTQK
UniProt O43808: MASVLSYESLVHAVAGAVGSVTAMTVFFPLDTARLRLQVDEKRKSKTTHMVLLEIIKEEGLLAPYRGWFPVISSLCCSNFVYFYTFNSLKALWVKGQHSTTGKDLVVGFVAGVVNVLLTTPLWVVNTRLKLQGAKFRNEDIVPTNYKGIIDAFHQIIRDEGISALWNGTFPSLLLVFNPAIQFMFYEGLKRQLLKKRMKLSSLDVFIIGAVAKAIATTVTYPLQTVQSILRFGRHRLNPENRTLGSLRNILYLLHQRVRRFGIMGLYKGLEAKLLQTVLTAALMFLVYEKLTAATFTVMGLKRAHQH
UniProt P11166: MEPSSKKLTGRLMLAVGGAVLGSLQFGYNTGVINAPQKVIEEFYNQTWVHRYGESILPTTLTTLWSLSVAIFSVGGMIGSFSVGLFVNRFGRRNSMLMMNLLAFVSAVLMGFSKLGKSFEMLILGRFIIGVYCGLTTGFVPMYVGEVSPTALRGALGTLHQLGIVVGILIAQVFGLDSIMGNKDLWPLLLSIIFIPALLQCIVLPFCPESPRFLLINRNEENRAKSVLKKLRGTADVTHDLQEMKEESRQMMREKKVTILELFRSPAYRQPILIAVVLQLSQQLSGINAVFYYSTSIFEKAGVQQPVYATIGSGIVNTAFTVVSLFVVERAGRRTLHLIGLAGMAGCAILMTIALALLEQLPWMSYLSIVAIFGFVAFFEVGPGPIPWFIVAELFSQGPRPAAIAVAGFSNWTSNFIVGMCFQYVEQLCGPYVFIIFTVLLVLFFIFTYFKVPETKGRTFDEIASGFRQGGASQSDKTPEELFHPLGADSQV
UniProt P08195: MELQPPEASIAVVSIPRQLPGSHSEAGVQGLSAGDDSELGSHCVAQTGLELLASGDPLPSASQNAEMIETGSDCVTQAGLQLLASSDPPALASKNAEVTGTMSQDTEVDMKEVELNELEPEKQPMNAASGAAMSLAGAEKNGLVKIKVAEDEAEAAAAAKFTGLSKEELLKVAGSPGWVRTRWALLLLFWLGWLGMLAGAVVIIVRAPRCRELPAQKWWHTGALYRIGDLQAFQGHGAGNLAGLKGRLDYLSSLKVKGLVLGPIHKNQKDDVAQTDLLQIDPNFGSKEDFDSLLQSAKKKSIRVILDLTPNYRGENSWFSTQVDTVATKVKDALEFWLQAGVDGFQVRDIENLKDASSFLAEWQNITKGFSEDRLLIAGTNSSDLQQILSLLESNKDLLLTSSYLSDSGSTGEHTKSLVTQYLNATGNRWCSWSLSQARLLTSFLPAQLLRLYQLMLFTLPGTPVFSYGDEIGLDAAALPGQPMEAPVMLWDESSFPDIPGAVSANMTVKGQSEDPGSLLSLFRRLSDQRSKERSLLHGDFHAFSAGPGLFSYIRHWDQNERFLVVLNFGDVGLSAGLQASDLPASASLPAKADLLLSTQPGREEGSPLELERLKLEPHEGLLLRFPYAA
UniProt Q9HAB3: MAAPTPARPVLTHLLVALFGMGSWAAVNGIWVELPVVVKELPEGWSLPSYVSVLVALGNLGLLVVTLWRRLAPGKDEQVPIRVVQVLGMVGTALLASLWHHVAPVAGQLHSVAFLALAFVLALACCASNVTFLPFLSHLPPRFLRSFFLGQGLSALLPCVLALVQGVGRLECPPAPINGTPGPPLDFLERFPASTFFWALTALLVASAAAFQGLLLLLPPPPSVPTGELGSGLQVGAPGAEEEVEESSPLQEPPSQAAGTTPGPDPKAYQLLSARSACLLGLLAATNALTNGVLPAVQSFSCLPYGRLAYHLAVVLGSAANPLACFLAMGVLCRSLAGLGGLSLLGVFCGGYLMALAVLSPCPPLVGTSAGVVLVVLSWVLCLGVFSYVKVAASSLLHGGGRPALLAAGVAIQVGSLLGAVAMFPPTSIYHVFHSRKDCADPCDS
UniProt Q8IXU6: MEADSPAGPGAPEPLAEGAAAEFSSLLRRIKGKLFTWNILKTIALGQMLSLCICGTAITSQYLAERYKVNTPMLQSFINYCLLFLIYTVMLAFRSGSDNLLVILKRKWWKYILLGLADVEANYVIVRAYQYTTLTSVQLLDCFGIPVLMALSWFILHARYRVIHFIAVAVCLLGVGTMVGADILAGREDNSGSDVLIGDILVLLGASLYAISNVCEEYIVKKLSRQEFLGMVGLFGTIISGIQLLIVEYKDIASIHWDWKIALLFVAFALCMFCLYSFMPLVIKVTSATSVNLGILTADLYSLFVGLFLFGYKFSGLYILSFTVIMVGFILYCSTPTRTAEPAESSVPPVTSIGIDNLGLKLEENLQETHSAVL
UniProt P12236: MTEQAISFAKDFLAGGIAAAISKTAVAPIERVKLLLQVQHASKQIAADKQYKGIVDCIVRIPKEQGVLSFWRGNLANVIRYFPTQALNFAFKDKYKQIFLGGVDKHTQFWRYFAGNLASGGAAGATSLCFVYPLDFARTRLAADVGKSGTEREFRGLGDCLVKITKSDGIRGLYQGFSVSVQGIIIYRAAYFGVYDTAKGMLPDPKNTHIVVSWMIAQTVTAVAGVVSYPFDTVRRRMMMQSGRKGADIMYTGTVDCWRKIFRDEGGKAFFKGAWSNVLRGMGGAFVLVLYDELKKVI
UniProt Q9BRY0: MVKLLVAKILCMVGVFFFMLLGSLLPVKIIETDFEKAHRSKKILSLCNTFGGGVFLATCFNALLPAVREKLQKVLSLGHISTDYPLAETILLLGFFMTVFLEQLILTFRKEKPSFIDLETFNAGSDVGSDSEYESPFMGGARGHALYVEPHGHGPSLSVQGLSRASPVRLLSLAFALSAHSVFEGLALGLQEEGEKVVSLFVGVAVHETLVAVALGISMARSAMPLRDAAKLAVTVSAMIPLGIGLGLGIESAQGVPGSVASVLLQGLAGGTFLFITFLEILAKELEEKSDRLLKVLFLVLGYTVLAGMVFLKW
UniProt Q96H78: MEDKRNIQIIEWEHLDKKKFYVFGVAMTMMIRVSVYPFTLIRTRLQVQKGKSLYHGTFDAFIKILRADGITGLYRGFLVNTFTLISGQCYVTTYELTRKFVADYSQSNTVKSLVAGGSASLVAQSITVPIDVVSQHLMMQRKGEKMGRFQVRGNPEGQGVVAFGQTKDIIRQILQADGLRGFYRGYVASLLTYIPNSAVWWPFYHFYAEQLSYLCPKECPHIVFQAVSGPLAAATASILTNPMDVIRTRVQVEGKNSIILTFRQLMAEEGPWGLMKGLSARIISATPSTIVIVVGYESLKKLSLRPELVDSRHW
UniProt Q9H2G2: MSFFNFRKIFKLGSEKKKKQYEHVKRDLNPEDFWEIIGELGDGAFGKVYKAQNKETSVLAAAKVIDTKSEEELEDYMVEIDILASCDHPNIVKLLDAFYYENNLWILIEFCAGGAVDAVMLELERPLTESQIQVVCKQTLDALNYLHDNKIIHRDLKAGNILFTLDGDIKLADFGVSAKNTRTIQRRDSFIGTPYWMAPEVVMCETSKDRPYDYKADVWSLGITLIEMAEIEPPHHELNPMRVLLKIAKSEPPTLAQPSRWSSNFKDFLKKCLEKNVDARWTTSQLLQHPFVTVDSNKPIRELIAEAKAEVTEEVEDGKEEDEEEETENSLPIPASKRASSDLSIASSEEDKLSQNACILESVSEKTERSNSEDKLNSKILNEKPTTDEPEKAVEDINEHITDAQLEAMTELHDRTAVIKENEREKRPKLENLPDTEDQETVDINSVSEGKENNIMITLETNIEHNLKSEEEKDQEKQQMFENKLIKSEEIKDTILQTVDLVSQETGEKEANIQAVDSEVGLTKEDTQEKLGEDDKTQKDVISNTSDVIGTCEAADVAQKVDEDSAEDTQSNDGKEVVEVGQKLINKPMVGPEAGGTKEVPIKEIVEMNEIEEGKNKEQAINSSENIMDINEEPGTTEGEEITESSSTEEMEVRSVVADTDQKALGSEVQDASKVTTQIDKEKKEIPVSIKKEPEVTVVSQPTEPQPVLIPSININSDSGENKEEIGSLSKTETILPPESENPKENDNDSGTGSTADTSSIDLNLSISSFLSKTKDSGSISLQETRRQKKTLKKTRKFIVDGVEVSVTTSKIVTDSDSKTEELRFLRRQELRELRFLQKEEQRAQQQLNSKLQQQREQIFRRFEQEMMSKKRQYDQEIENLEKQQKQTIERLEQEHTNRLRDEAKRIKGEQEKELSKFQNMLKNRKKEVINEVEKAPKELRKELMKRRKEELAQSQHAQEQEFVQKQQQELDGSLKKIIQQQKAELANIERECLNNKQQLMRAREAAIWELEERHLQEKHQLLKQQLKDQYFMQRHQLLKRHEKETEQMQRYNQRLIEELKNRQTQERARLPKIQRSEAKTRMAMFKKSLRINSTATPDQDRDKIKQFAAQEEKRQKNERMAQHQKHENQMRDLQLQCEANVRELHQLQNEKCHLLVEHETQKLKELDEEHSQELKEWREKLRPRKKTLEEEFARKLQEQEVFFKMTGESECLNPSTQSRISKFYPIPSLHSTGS

How the values were obtained:
Assay in all cases: log2 fold change, soluble protein after heating vs DMSO (PISA); higher = thermal stabilisation; K562 lysate, 10 uM; active = over 0.2 and 3.5 SD of the protein, either way, in both replicates (recomputed)
[1] = compound: C1=CC=C(C=C1)[C@H](COC2=CC3=C(C=C2)NC(=O)N3)NC(=O)C4=CC=CN(C4=O)CC5=CC(=C(C=C5)F)F
In short: (§1)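 Quantification was by TMTpro 16plex LC-MS/MS with equalised channel sums, applied to the supernatant after 21,000xg for 90 min. Samples were crude K562 extract at 1 mg/mL protein in PBS pH 7.4 with 1 mM MgCl2, treated with 10 μM compound for 30 min, heated for 3 min across 48°C-58°C, pooled and brought to 0.5% NP-40 at 4°C. Values are log-two fold changes in thermal stability relative to solvent controls, from duplicates.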

[2] = compound: CC1=C(SC2=C1C(=N[C@H](C3=NN=C(N32)C)CC(=O)N)C4=CC=C(C=C4)Cl)C
In short: as §1

[3] = compound: CC1=C2C(=CC=C1)N=C(N(C2=O)C3=CC=CC=C3C)CN4C=NC5=C(N=CN=C54)N
In short: as §1

[4] = compound: Cc1sc2c(c1C)C(c1ccc(Cl)cc1)=N[C@@H](CC(=O)OC(C)(C)C)c1nnc(C)n1-2
In short: as §1

[5] = compound: c1ccc([C@@H]2C[C@H]2NC2CCNCC2)cc1
In short: as §1

Measured: log2 fold change

SLC5A3 (UniProt P53794)
inactive: [1] -0.034 | [2] -0.016 | [3] -0.001 | [4] -0.041 | [5] -0.002

SLC9A6 isoform 2 (UniProt Q92581)
inactive: [1] -0.074 | [2] -0.085 | [3] -0.03 | [4] 0.006 | [5] 0.062

SLC43A3 isoform 2 (UniProt Q8NBI5)
inactive: [1] 0.047 | [2] -0.065 | [3] 0.015 | [4] -0.039 | [5] 0.006

SLC25A24 (UniProt Q6NUK1)
inactive: [1] 0.02 | [2] -0.017 | [3] -0.005 | [4] -0.004 | [5] 0.011

SLC25A17 (UniProt O43808)
inactive: [1] -0.014 | [2] 0.007 | [3] -0.024 | [4] -0.096 | [5] -0.163

SLC2A1 (UniProt P11166)
inactive: [1] -0.009 | [2] 0.009 | [3] 0.013 | [4] 0.002 | [5] 0.047

SLC3A2 isoform 3 (UniProt P08195)
inactive: [1] 0.015 | [2] 0.022 | [3] 0.004 | [4] -0.043 | [5] -0.015

SLC52A2 (UniProt Q9HAB3)
inactive: [1] -0.019 | [2] -0.036 | [3] -0.016 | [4] -0.048 | [5] 0.021

SLC35F2 (UniProt Q8IXU6)
inactive: [1] 0.114 | [2] 0.057 | [3] -0.02 | [4] -0.1 | [5] -0.104

SLC25A6 (UniProt P12236)
inactive: [1] -0.015 | [2] 0.036 | [3] -0.046 | [4] -0.011 | [5] -0.014

SLC39A3 (UniProt Q9BRY0)
inactive: [1] -0.078 | [2] 0.024 | [3] 0.03 | [4] -0.019 | [5] 0.094

SLC25A44 (UniProt Q96H78)
inactive: [1] 0.042 | [2] -0.044 | [3] -0.014 | [4] -0.004 | [5] -0.17

Quoted from above (2 entries):
SLC52A2 (UniProt Q9HAB3)
inactive: [1] -0.019 | [2] -0.036 | [3] -0.016 | [4] -0.048 | [5] 0.021

SLC35F2 (UniProt Q8IXU6)
inactive: [1] 0.114 | [2] 0.057 | [3] -0.02 | [4] -0.1 | [5] -0.104

(next part)

SLK isoform 2 (UniProt Q9H2G2)
inactive: [1] 0.009 | [2] -0.003 | [3] -0.034 | [4] -0.002 | [5] 0

SLC7A6 (UniProt Q92536)
inactive: [1] 0.081 | [2] -0.008 | [3] 0.069 | [4] -0.058 | [5] -0.171
